Source: the supplement of paper PMC7877785
± gives the uncertainty stated by the source. The uncertainty is large for many entries.

Assay: self-splicing fitness, log relative to wild type (ln ratio); higher = more splicing; Tetrahymena group I intron in knt gene, E. coli kanamycin selection, DiMSum; sequences stand for … in CUCUCU…GGAGGGAAAAGUUAUCAGGCAUGCACCUGGUAGCUAGUCUUUAAACCAAUAGAUUGCAUCGGUUUAAAAGGCAAGACCGUCAAAUUGCGGGAAAGGGGUCAACAGCCGUUCAGUACCAAGUCUCAGGGGAAACUUUGAGAUGGCCUUGCAAAGGGUAUGGUAAUAAGCUGACGGACAUGGUCCUAACCACGCAGCCAAGUCCUAAGUCAACAGAUCUUCUGUUGAUAUGGAUGCAGUUCACAGACUAAAUGUCGGUCGGGGAAGAUGUAUUCUUCUCAUAAGAUAUAGUCGGACCUCUCCUUAAUGGGAGCUAGCGGAUGAAGUGAUGCAACACUGGAGCCGCUGGGAACUAAUUUGUAUGCGAAAGUAUAUUGAUUAGUUUUGGAGUACUCGUGGUCG
Summary of the method: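 Fitness was computed with DiMSum as the error-weighted combination of replicate fold changes, kanamycin versus none, each normalised to wild type. The library randomised all eight intron nucleotides of the P1ex region, with the intron placed in the knt kanamycin-resistance gene on pET-22b(+) in E. coli BL21(DE3). Six replicate transformations were grown overnight at 37°C or 30°C on LB agar with or without 25 μg/mL kanamycin, plus 100 μg/mL carbenicillin, 50 μM IPTG and 0.2% rhamnose. Pooled colonies were amplicon-sequenced on an Illumina HiSeq 2500.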

Sequence | self-splicing fitness (ln) (30 °C) | self-splicing fitness (ln) (37 °C)
UAAGAGCAAUAUUACGGACC | -2.25 ± 1.1 | -1.13 ± 1.2
CCAGAGCAAUAUUACGGACA |  | -1.22 ± 0.6
UAGGAGCAAUAUUACGCUAC | -1.96 ± 0.87 | 
UUCCAGCAAUAUUACGGGGA | -4.8 ± 0.59 | 
GUCGAGCAAUAUUACGCCAU | -2.99 ± 0.28 | -2.4 ± 0.24
CGAUAGCAAUAUUACGAAGC | -3.92 ± 0.53 | 
AGAGAGCAAUAUUACGAGCA | -2.68 ± 0.46 | -1.31 ± 0.27
GGAUAGCAAUAUUACGUCCC | -1.55 ± 1.2 | 
GAAGAGCAAUAUUACGGCAA | -2.67 ± 0.78 | 
GAGGAGCAAUAUUACGCUGU | -2.65 ± 0.88 | 
UAGUAGCAAUAUUACGCAAC |  | -1.14 ± 0.64
CAUCAGCAAUAUUACGUGAA | -0.729 ± 0.055 | -0.211 ± 0.09
GAUGAGCAAUAUUACGAAUU |  | -3.58 ± 1
UAUAAGCAAUAUUACGAGGC | -3.8 ± 0.77 | 
GGUGAGCAAUAUUACGCGGG | -3.98 ± 0.59 | -1.13 ± 0.71
CAGCAGCAAUAUUACGCCGC | -2.65 ± 0.8 | -1.66 ± 0.83
GUGAAGCAAUAUUACGGAAC | 0.76 ± 0.34 | -2.24 ± 0.57
AAGAAGCAAUAUUACGAAUA | -1.86 ± 0.17 | -0.73 ± 0.12
UGCGAGCAAUAUUACGUAGA | -3.58 ± 0.62 | 
GGGGAGCAAUAUUACGGAAC | -4.05 ± 1 | 
ACACAGCAAUAUUACGUCCA | -1.09 ± 0.089 | -0.474 ± 0.096
ACCGAGCAAUAUUACGUUCU | -2.38 ± 0.074 | -1.01 ± 0.074
CUCAAGCAAUAUUACGCAAC |  | -2.39 ± 0.78
UGAGAGCAAUAUUACGUUUC | -3.93 ± 0.51 | -2.32 ± 0.56

Sequence | self-splicing fitness (ln) (30 °C) | self-splicing fitness (ln) (37 °C)
CUAGAGCAAUAUUACGGUAU | -4.38 ± 0.72 | 
AGGAAGCAAUAUUACGGAAG | -2.98 ± 0.25 | -2.28 ± 0.39
UAUAAGCAAUAUUACGACGC | -3.44 ± 0.23 | -1.19 ± 0.17
GCGGAGCAAUAUUACGCACA | -4.04 ± 1.1 | 
UUUGAGCAAUAUUACGGGCC | -3.57 ± 0.61 | -3.44 ± 0.6
UGAUAGCAAUAUUACGCUCC | -2.59 ± 0.64 | 
UGCGAGCAAUAUUACGCCUU | -1.84 ± 0.68 | 
CUAGAGCAAUAUUACGUCGU |  | -2.19 ± 0.57
GUGAAGCAAUAUUACGCCUC | -1.22 ± 0.25 | -1.09 ± 0.48
CUUUAGCAAUAUUACGGCGC |  | -2.76 ± 0.62
CACUAGCAAUAUUACGUUGA | -3.56 ± 0.2 | -2.24 ± 0.16
UUGGAGCAAUAUUACGAAGC | -2.37 ± 0.54 | -1.33 ± 0.61
CAGUAGCAAUAUUACGUCGA | -3.45 ± 0.25 | -1.49 ± 0.17
UUAGAGCAAUAUUACGUUGG | -1.89 ± 0.1 | -1.59 ± 0.14
CGACAGCAAUAUUACGUAAA | -3.02 ± 0.15 | -2.28 ± 0.21
CCUGAGCAAUAUUACGUCUU | -4.31 ± 0.51 | 
CUUAAGCAAUAUUACGAAAA |  | -3.13 ± 0.61
AGAGAGCAAUAUUACGCUAA | -3.41 ± 0.74 | 
CGGAAGCAAUAUUACGUACA | -0.615 ± 0.13 | -0.219 ± 0.15
GGCAAGCAAUAUUACGGUUU | -0.376 ± 0.052 | 0.232 ± 0.069
CCUAAGCAAUAUUACGGUCC | -3.64 ± 1 | 
UACUAGCAAUAUUACGAAAC | -4.49 ± 1 | 
UUCCAGCAAUAUUACGGAGU |  | -3.39 ± 0.6
CUCGAGCAAUAUUACGUAAC |  | -1.84 ± 1.1

Some of the entries so far, as tab-separated lines:
Sequence	self-splicing fitness (ln) (30 °C)	self-splicing fitness (ln) (37 °C)
GGCAAGCAAUAUUACGGUUU	-0.376 ± 0.052	0.232 ± 0.069
CCUAAGCAAUAUUACGGUCC	-3.64 ± 1	
UACUAGCAAUAUUACGAAAC	-4.49 ± 1	
UUCCAGCAAUAUUACGGAGU		-3.39 ± 0.6
CUCGAGCAAUAUUACGUAAC		-1.84 ± 1.1

The listing continues.

Sequence | self-splicing fitness (ln) (30 °C) | self-splicing fitness (ln) (37 °C)
GCACAGCAAUAUUACGCACG | -2.06 ± 0.11 | -0.889 ± 0.1
AAUUAGCAAUAUUACGUCAA | -2.11 ± 0.17 | -0.791 ± 0.22
CGGGAGCAAUAUUACGAAUC | -3.86 ± 0.52 | 
UUGGAGCAAUAUUACGCGGC | -2.54 ± 0.64 | 
UAAUAGCAAUAUUACGAAUC | -4.21 ± 0.31 | -2.34 ± 0.39
CGGGAGCAAUAUUACGGUGC |  | -2.2 ± 0.64
GUAGAGCAAUAUUACGCCAU |  | -2.08 ± 1.1
GAAGAGCAAUAUUACGCCAU | -3.34 ± 0.65 | -1.61 ± 0.37
CAUUAGCAAUAUUACGCGAC |  | -2.02 ± 0.57
GGAGAGCAAUAUUACGAACG | -3.92 ± 1 | -0.691 ± 0.71
GAAGAGCAAUAUUACGUAGG | -3.14 ± 0.33 | -1.99 ± 0.19
UACAAGCAAUAUUACGCAGC | -4 ± 0.42 | -2.63 ± 0.39
UCGGAGCAAUAUUACGUCCG | -3.21 ± 1.1 | -2.13 ± 0.81
GGCGAGCAAUAUUACGAUGG |  | 0.254 ± 0.71
AUGGAGCAAUAUUACGACUC | -3.14 ± 0.61 | -1.81 ± 0.52
UACGAGCAAUAUUACGGAGG | -2.06 ± 0.5 | -2.27 ± 0.55
UUUUAGCAAUAUUACGUCUC | -2.97 ± 0.64 | -2.01 ± 0.65
AGAGAGCAAUAUUACGCCCG | -2.79 ± 1.2 | -0.517 ± 0.87
GGGUAGCAAUAUUACGUCAG | -4.17 ± 0.52 | 
AUCUAGCAAUAUUACGCCAC | -1.7 ± 0.53 | -1.93 ± 0.51
CGAGAGCAAUAUUACGGAUU |  | -3.4 ± 1
ACGAAGCAAUAUUACGAGCC | -4.9 ± 0.59 | -3.11 ± 0.6
AAUGAGCAAUAUUACGCUUC | -5.23 ± 0.58 | 
CAGGAGCAAUAUUACGAGGC |  | -1.7 ± 0.54

Sequence | self-splicing fitness (ln) (30 °C) | self-splicing fitness (ln) (37 °C)
UUAGAGCAAUAUUACGCCGC | -3.43 ± 1 | -2.79 ± 1.1
GACGAGCAAUAUUACGGAUU | -4.02 ± 0.51 | 
CGUGAGCAAUAUUACGUACG | -3.37 ± 0.61 | 
GGUGAGCAAUAUUACGCCCG | -3.04 ± 0.63 | 
UGUUAGCAAUAUUACGCCGC |  | -3.19 ± 0.74
AGGGAGCAAUAUUACGUCAA | -3.37 ± 0.44 | -2.52 ± 0.45
ACAGAGCAAUAUUACGCUGC |  | -3.36 ± 0.52
CUCAAGCAAUAUUACGAAUA | -3.27 ± 0.64 | -2.74 ± 0.54
UCGGAGCAAUAUUACGGCUC |  | -0.602 ± 0.51
UUACAGCAAUAUUACGCCGC | -3.19 ± 0.56 | -1.33 ± 1.2
GUAAAGCAAUAUUACGCUGA | -1.4 ± 0.072 | -0.903 ± 0.099
UCUUAGCAAUAUUACGGCAA | -2.96 ± 0.53 | 
CUGGAGCAAUAUUACGGCCC | -3.41 ± 0.52 | -3.08 ± 0.74
CAGAAGCAAUAUUACGAAAA | -4.31 ± 0.46 | -2.65 ± 0.21
CAAGAGCAAUAUUACGCCGU |  | -3.74 ± 1
AAAGAGCAAUAUUACGGACG | -2.59 ± 0.58 | -1.65 ± 0.53
UCUCAGCAAUAUUACGGACC | -4.87 ± 1 | 
CGUUAGCAAUAUUACGCCAU | -4.26 ± 1 | 
CUUUAGCAAUAUUACGAACA |  | -2.99 ± 0.53
UCUUAGCAAUAUUACGCUAA |  | -1.88 ± 0.82
UGAUAGCAAUAUUACGAGGG | -4.89 ± 0.59 | 
AAGGAGCAAUAUUACGCAUA |  | -1.95 ± 0.69
AAGGAGCAAUAUUACGUCAC | -3.93 ± 0.74 | 
UCUUAGCAAUAUUACGGAGA | -3.56 ± 0.6 | 

Sequence | self-splicing fitness (ln) (30 °C) | self-splicing fitness (ln) (37 °C)
CAAGAGCAAUAUUACGGACC | -2.77 ± 0.76 | -3.77 ± 0.6
CCAAAGCAAUAUUACGGCCC |  | -2.72 ± 0.54
UUUGAGCAAUAUUACGGUAC |  | -2.44 ± 0.78
GUCAAGCAAUAUUACGGCCA | -4.07 ± 0.72 | -2.24 ± 0.55
AUCGAGCAAUAUUACGCGCC |  | -0.309 ± 0.55
CUAUAGCAAUAUUACGUGGG | -3.25 ± 0.19 | -2.16 ± 0.15
UGCGAGCAAUAUUACGCCCU |  | -2.3 ± 1.1
GCGCAGCAAUAUUACGACCU | 0.0686 ± 0.071 | 0.0313 ± 0.084
GCGGAGCAAUAUUACGGGAU |  | -2.39 ± 1.1
UCCGAGCAAUAUUACGCUCC |  | -1.47 ± 1.2
ACACAGCAAUAUUACGCACC | -0.476 ± 0.09 | -0.151 ± 0.11
CGGUAGCAAUAUUACGCUUC | -3.87 ± 0.52 | 
CGGAAGCAAUAUUACGAUAA | -3.42 ± 0.53 | 
AUAUAGCAAUAUUACGUGGC | -4.91 ± 0.59 | 
UUUAAGCAAUAUUACGAGGC | -3.57 ± 0.53 | -0.693 ± 1.4
GAUUAGCAAUAUUACGCCUC | -0.628 ± 0.52 | -0.638 ± 0.87
GUCCAGCAAUAUUACGUGAA | 0.0486 ± 0.079 | 0.617 ± 0.098
CUCAAGCAAUAUUACGGUAC | -3.9 ± 0.72 | 
UUGUAGCAAUAUUACGAAGA |  | -3.17 ± 0.6
ACUCAGCAAUAUUACGCGGG | -2.91 ± 0.15 | -2.68 ± 0.18
GCUGAGCAAUAUUACGAAGG | -3.74 ± 0.6 | 

Taken from above.
self-splicing fitness (ln) (30 °C) with GCGCAGCAAUAUUACGACCU reads 0.0686 ± 0.071
self-splicing fitness (ln) (30 °C) with GUCAAGCAAUAUUACGGCCA reads -4.07 ± 0.72
